Data on one substance can be found in publication PMC4038462.

By UniProt entry, the sequences of proteins in these tests, tags left out.
UniProt P26367: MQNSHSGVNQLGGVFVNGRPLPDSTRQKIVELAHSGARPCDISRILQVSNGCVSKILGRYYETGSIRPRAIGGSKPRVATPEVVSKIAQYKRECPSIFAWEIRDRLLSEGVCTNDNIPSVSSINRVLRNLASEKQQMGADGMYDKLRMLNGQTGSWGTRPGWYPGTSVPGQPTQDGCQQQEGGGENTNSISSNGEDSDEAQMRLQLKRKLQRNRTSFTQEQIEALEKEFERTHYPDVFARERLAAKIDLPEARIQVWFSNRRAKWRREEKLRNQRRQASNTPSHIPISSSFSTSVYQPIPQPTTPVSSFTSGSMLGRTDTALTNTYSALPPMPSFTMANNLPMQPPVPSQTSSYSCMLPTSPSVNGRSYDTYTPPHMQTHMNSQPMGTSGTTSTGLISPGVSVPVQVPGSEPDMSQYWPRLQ
UniProt O75030: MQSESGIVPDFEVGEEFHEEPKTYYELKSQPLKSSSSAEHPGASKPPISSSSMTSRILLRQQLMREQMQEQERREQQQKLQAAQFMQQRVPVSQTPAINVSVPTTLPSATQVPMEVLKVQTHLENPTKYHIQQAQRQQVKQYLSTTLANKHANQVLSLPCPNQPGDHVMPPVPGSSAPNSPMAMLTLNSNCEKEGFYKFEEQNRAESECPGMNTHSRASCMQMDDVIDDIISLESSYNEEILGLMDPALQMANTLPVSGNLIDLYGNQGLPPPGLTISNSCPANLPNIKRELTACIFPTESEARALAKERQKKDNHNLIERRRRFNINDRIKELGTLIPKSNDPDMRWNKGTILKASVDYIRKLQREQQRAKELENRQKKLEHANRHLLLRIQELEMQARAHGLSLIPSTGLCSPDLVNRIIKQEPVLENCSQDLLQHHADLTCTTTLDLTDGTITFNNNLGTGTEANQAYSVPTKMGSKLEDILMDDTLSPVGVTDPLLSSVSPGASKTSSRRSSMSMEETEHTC

Results are given in words; binding and its absence hold for the method and conditions named. In cells and extracts the contact can be indirect. Some binding calls cover weakened binding; strength is not graded here.

The target of this assay is PAX6 (endogenous, ARPE19 cells) (human (endogenous in ARPE19)) (UniProt P26367). Briefly: co-IP; reciprocal co-IP from ARPE19 protein extracts (cells scraped in RIPA buffer with protease inhibitor); IP with rabbit anti-PAX6 or rabbit anti-MITF, IgG as control; blot with mouse anti-PAX6 or mouse anti-MITF.

Take “MITF (microphthalmia-associated transcription factor; endogenous, ARPE19 cells) (from UniProt O75030 1-526)”: the binding result is listed as “binds”.
